Results from PMC10353998 (2023).
Results are given in words; binding and its absence hold for the method and conditions named. In cells and extracts the contact can be indirect. These calls come from enrichment with a bait or labelling near it, and not all partners need be listed. Sequences can lack the tags named with a protein.

Chains of the proteins cited; added tags and fusions are not shown.
UniProt P38159: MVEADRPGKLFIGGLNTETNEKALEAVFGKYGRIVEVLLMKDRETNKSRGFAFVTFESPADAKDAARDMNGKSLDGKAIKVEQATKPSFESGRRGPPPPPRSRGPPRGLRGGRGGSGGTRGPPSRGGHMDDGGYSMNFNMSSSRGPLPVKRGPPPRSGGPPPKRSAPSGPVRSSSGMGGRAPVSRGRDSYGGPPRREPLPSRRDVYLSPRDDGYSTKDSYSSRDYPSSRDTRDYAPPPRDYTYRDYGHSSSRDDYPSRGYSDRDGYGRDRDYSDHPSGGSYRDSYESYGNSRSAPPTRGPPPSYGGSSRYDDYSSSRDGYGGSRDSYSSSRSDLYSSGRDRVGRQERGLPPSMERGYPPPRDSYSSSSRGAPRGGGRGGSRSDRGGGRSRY

T1: eGFP-GGSG-Flag-RBM20-R634Q (human) (UniProt Q5T481)
T1 sequence: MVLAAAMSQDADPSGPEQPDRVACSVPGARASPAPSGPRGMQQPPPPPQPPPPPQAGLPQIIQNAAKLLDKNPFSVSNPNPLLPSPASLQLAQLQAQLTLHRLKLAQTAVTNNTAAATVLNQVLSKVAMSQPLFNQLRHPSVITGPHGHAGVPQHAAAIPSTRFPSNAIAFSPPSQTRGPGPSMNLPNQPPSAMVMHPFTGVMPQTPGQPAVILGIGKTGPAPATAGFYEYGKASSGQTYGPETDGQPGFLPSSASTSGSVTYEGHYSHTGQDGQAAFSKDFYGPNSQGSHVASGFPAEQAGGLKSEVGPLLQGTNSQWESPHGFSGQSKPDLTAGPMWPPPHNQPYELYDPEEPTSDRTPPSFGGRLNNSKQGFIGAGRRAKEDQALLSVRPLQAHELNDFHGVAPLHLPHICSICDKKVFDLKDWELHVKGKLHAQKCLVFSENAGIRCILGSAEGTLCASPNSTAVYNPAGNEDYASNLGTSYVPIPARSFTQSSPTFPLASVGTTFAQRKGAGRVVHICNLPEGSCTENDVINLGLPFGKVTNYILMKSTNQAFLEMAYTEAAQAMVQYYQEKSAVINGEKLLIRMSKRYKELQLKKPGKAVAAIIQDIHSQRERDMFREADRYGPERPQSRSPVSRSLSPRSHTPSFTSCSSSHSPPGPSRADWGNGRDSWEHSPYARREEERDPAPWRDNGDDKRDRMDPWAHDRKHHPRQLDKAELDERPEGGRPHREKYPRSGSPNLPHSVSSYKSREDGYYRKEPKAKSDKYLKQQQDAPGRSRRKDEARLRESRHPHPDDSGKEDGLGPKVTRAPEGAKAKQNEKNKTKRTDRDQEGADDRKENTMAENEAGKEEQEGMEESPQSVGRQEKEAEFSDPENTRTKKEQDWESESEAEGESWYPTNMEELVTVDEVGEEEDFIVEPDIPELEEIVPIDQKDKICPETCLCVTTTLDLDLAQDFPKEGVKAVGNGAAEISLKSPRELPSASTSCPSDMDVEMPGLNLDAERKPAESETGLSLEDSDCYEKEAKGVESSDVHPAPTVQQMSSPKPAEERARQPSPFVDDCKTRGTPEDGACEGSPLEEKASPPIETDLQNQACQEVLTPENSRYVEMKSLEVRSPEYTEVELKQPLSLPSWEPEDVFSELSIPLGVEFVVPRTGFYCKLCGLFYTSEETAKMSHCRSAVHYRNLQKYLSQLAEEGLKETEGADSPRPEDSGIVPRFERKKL

T2: eGFP-GGSG-Flag-RBM20-P633L (human) (UniProt Q5T481)
T2 sequence: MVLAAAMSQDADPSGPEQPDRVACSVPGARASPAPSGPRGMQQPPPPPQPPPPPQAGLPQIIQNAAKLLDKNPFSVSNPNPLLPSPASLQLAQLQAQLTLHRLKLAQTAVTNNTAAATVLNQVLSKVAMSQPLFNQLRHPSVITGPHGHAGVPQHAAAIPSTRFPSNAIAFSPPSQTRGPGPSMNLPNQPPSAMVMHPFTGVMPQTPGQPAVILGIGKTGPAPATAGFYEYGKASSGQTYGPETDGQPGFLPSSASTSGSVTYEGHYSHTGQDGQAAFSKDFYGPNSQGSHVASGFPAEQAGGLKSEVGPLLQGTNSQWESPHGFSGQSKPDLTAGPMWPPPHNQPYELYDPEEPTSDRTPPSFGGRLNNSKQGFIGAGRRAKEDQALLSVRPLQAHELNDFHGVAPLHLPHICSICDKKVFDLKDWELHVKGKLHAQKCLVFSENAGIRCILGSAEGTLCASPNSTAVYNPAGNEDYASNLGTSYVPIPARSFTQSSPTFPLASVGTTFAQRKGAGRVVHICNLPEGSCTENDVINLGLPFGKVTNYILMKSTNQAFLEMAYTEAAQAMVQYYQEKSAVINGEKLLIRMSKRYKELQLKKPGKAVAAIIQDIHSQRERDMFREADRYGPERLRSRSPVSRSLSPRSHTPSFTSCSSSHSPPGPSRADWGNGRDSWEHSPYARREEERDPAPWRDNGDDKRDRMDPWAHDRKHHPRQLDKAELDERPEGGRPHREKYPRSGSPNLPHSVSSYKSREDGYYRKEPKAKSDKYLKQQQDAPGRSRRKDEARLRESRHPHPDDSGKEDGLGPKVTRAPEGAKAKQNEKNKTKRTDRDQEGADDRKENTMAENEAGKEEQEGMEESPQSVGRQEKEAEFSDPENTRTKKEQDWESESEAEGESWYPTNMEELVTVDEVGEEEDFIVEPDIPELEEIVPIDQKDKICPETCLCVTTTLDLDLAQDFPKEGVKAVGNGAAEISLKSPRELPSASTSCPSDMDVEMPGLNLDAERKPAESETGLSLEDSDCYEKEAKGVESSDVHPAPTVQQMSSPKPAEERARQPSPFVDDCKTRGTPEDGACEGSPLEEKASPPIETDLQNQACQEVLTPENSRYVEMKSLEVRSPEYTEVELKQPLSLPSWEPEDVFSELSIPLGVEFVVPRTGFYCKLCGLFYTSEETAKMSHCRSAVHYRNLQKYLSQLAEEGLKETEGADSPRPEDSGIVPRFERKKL


Key:
[1] = molecular target: T1, eGFP-GGSG-Flag-RBM20-R634Q (human); test: affinity purification with mass spectrometry; GFP-Trap magnetic particles, 1 mg of nuclear and insoluble fraction of HeLa expressing eGFP-RBM20 (WT, P633L, R634Q, RSS), 4 °C 3 h; washes with 150 mM NaCl, 0.1% NP-40; TMT LC-MS/MS; hits against a no-bait control
[2] = molecular target: T2, eGFP-GGSG-Flag-RBM20-P633L (human); test: as above

Row | Molecule | binding [1] | binding [2]
1 | RBMX (from UniProt P38159 1-391) | binds | binds
2 | RBM15 (protein, UniProt Q96T37 1-977) MRTAGRDPVPRRSPRWRRAVPLCETSAGRRVTQLRGDDLRRPATMKGKERSPVKAKRSRGGEDSTSRGERSKKLGGSGGSNGSSSGKTDSGGGSRRSLHLDKSSSRGGSREYDTGGGSSSSRLHSYSSPSTKNSSGGGESRSSSRGGGGESRSSGAASSAPGGGDGAEYKTLKISELGSQLSDEAVEDGLFHEFKRFGDVSVKISHLSGSGSGDERVAFVNFRRPEDARAAKHARGRLVLYDRPLKIEAVYVSRRRSRSPLDKDTYPPSASVVGASVGGHRHPPGGGGGQRSLSPGGAALGYRDYRLQQLALGRLPPPPPPPLPRDLERERDYPFYERVRPAYSLEPRVGAGAGAAPFREVDEISPEDDQRANRTLFLGNLDITVTESDLRRAFDRFGVITEVDIKRPSRGQTSTYGFLKFENLDMSHRAKLAMSGKIIIRNPIKIGYGKATPTTRLWVGGLGPWVPLAALAREFDRFGTIRTIDYRKGDSWAYIQYESLDAAHAAWTHMRGFPLGGPDRRLRVDFADTEHRYQQQYLQPLPLTHYELVTDAFGHRAPDPLRGARDRTPPLLYRDRDRDLYPDSDWVPPPPPVRERSTRTAATSVPAYEPLDSLDRRRDGWSLDRDRGDRDLPSSRDQPRKRRLPEESGGRHLDRSPESDRPRKRHCAPSPDRSPELSSSRDRYNSDNDRSSRLLLERPSPIRDRRGSLEKSQGDKRDRKNSASAERDRKHRTTAPTEGKSPLKKEDRSDGSAPSTSTASSKLKSPSQKQDGGTAPVASASPKLCLAWQGMLLLKNSNFPSNMHLLQGDLQVASSLLVEGSTGGKVAQLKITQRLRLDQPKLDEVTRRIKVAGPNGYAILLAVPGSSDSRSSSSSAASDTATSTQRPLRNLVSYLKQKQAAGVISLPVGGNKDKENTGVLHAFPPCEFSQQFLDSPAKALAKSEEDYLVMIIVRGFGFQIGVRYENKKRENLALTLL | binds | binds
3 | RBM14 (protein, UniProt Q96PK6 1-669) MKIFVGNVDGADTTPEELAALFAPYGTVMSCAVMKQFAFVHMRENAGALRAIEALHGHELRPGRALVVEMSRPRPLNTWKIFVGNVSAACTSQELRSLFERRGRVIECDVVKDYAFVHMEKEADAKAAIAQLNGKEVKGKRINVELSTKGQKKGPGLAVQSGDKTKKPGAGDTAFPGTGGFSATFDYQQAFGNSTGGFDGQARQPTPPFFGRDRSPLRRSPPRASYVAPLTAQPATYRAQPSVSLGAAYRAQPSASLGVGYRTQPMTAQAASYRAQPSVSLGAPYRGQLASPSSQSAAASSLGPYGGAQPSASALSSYGGQAAAASSLNSYGAQGSSLASYGNQPSSYGAQAASSYGVRAAASSYNTQGAASSLGSYGAQAASYGAQSAASSLAYGAQAASYNAQPSASYNAQSAPYAAQQAASYSSQPAAYVAQPATAAAYASQPAAYAAQATTPMAGSYGAQPVVQTQLNSYGAQASMGLSGSYGAQSAAAATGSYGAAAAYGAQPSATLAAPYRTQSSASLAASYAAQQHPQAAASYRGQPGNAYDGAGQPSAAYLSMSQGAVANANSTPPPYERTRLSPPRASYDDPYKKAVAMSKRYGSDRRLAELSDYRRLSESQLSFRRSPTKSSLDYRRLPDAHSDYARYSGSYNDYLRAAQMHSGYQRRM | binds | binds
